{
  "source": "paper PMC12457078",
  "about": "“Inhibition of soluble epoxide hydrolase in endotoxin induced pig lung injury” (Frontiers in Pharmacology, 2025)",
  "tested_on": "endotoxin-induced lung injury",
  "test": "porcine model of LPS-induced acute lung injury: haemodynamics, ventilation/mechanics, blood gases, P/F, chemistry, temperature, survival",
  "assay_type": "in vivo, pig",
  "conditions": "individual animals, listed as sEH-i 950",
  "procedure": "The animals were bred for purpose at the Forslunda Agricultural School in Umeå, Sweden. The pigs were pairwise kept in 8 m^2 pens before start of experiments and were fed twice daily with a commercially available pig diet without antimicrobials, and with free access to water. Photoperiods were 12:12 h light:dark. Room temperature in their stall was 20 °C ± 1 °C.\nAfter overnight fasting, but with free access to water and hay, animals were pre-medicated with ketamine (Ketaminol vet® 100 mg/mL; Intervet International B.V, Boxmeer, Netherlands), xylazine (Rompun® vet 20 mg/mL; Bayer Animal Health, Copenhagen, Denmark) and atropine (Atropin Mylan 0.5 mg/mL; Mylan AB, Stockholm, Sweden) by intramuscular injection before an auricular vein was cannulated. […]\nAll animals were monitored with pulse oximetry, heart rate, ECG, systemic arterial blood pressure (ABP), pulmonary arterial pressure (PAP), central venous pressure (CVP) temperature, tidal volumes, respiratory rate and end tidal carbon dioxide. At baseline, and at 3 h, 6 h and at the end of the experiment, pulmonary capillary wedge pressure (PCWP) was measured together with arterial and venous blood gas analyses, as well as cardiac output calculations. […]",
  "note": "Values joined by “and” are separate entries in the source; they are usually repeats but may differ in a detail not shown here. Equal entries are not always repeated.",
  "data": [
    {"smiles": "CCOCCOCCOCCCCCNC(=O)NC12CC3CC(CC(C3)C1)C2", "note": "[Compound 950]", "values": [
      {"measurement": "Temp 3 h", "setting": "3 h", "result": "37.6 °C and 39.3 °C and 37.8 °C and 38.8 °C and 39.2 °C and 38.9 °C and 39.6 °C and 37.5 °C and 38.3 °C and 38.1 °C"},
      {"measurement": "Temp 6 h", "setting": "6 h", "result": "39.1 °C and 38.3 °C and 39.8 °C and 40.5 °C and 38.7 °C and 40.3 °C and 37.4 °C and 38.2 °C"}
    ]}
  ]
}
